Values joined by “and” are separate entries in the source; they are usually repeats but may differ in a detail not shown here. Identical values can stand only once. At least one peptide structure holds a part that was inferred or is arguable (an end, a ring closure or a residue). Non-standard residues stand in square brackets, D forms with d. Residues, ends and D or L forms follow the SMILES beside them. *: point of attachment. Arg(NO2) = N=C(NCCC[C@H](N)C(=O)O)N[N+](=O)[O-]; Boc = CC(C)(C)OC(=O)*; Bn = c1ccc(C*)cc1
Tested on: LRF (luteinizing hormone releasing factor) induced luteinizing hormone (LH) release
Experiment: LRF antagonist activity in vitro in rat anterior pituitary cell cultures
Format: cell-based
Conditions: for LH Value: LRF-stimulated
Source text: Octapeptides of this invention were screened for LRF antagonist activity in vitro using rat anterior pituitary cell cultures as described by Vale et. al. [Endocrinology, 91, 562 (1972)]. The inhibition of LRF (luteinizing hormone releasing factor) induced luteinizing hormone (LH) release into the culture medium is the endpoint in this in vitro bioassay.

[1] = compound 6×10^-7 Molar, rat anterior pituitary cell culture medium

Row | SMILES | LH Value (compound 1×10^-7 Molar) | LH Value (compound 1×10^-9 Molar) | LH Value (compound 2×10^-7 Molar) | LH Value (compound 2×10^-9 Molar) | LH Value (compound 3.5×10^-7 Molar) | LH Value (compound 3.5×10^-9 Molar) | LH Value (compound 3.5×10^-10 Molar) | LH Value [1] | LH Value (compound 6×10^-8 Molar) | LH Value (compound 6×10^-9 Molar) | LH Value (compound 6×10^-10 Molar) | LH Value (compound 1×10^-8 Molar) | LH Value (compound 2×10^-8 Molar) | LH Value (compound 3.5×10^-8 Molar) | % LH Release Inhibition (compound 1×10^-7 Molar) | % LH Release Inhibition (compound 2×10^-7 Molar) | % LH Release Inhibition (compound 6×10^-8 Molar)
1 | CC(C)C[C@H](NC(=O)[C@@H](Cc1ccccc1)NC(=O)[C@H](Cc1ccc(OCc2ccccc2)cc1)NC(=O)[C@H](COCc1ccccc1)NC(=O)[C@H](Cc1c[nH]c2ccccc12)NC(=O)OC(C)(C)C)C(=O)N[C@@H](CCCNC(=N)N[N+](=O)[O-])C(=O)N1CCC[C@H]1C(=O)NCC(N)=O [N^α -t-butoxycarbonyl-L-tryptophyl-O-benzyl-L-seryl-O-benzyl-L-tyrosyl-D-phenylalanyl-L-leucyl-N^G -nitro-L-arginyl-L-prolyl-glycinamide] (Boc-WS(Bn)Y(Bn)[dF]L[Arg(NO2)]PG-NH2) | 12.29 ng/mL | 40.16 ng/mL | 16.12 ng/mL | 38.24 ng/mL | 16.95 ng/mL | 32.43 ng/mL | 47.18 ng/mL | 12.05 ng/mL | 11.50 ng/mL | 28.10 ng/mL | 45.76 ng/mL |  |  |  |  |  | 
2 | CCNC(=O)CNC(=O)[C@@H]1CCCN1C(=O)[C@H](CCCNC(=N)N[N+](=O)[O-])NC(=O)[C@H](CC(C)C)NC(=O)[C@@H](Cc1ccccc1)NC(=O)[C@H](Cc1ccc(OCc2ccccc2)cc1)NC(=O)[C@H](COCc1ccccc1)NC(=O)[C@H](Cc1c[nH]c2ccccc12)NC(=O)OC(C)(C)C [N^α -t-butoxycarbonyl-L-tryptophyl-O-benzyl-L-seryl-O-benzyl-L-tyrosyl-D-phenylalanyl-L-leucyl-N^G -nitro-L-arginyl-L-prolyl-glycine N-ethylamide] (Boc-WS(Bn)Y(Bn)[dF]L[Arg(NO2)]PG-NHEt) | 15.45 ng/mL |  | 12.13 ng/mL |  | 15.10 ng/mL |  |  | 11.99 ng/mL | 15.60 ng/mL and 10.12 ng/mL | 26.04 ng/mL |  | 22.86 ng/mL | 20.36 ng/mL | 13.92 ng/mL |  |  | 
3 | COC(=O)CNC(=O)[C@@H]1CCCN1C(=O)[C@H](CCCNC(=N)N[N+](=O)[O-])NC(=O)[C@H](CC(C)C)NC(=O)[C@@H](Cc1ccccc1)NC(=O)[C@H](Cc1ccc(OCc2ccccc2)cc1)NC(=O)[C@H](COCc1ccccc1)NC(=O)[C@H](Cc1c[nH]c2ccccc12)NC(=O)OC(C)(C)C [N^α -t-butoxycarbonyl-L-tryptophyl-O-benzyl-L-seryl-O-benzyl-L-tyrosyl-D-phenylalanyl-L-leucyl-N^G -nitro-L-arginyl-L-prolyl-glycine methyl ester] (Boc-WS(Bn)Y(Bn)[dF]L[Arg(NO2)]PG-OMe) | 12.38 ng/mL |  | 9.62 ng/mL |  |  |  | 47.18 ng/mL |  | 12.80 ng/mL |  |  |  | 26.23 ng/mL | 18.11 ng/mL | 107% | 118% | 105%
